Results of single-concentration screens

The values are deposited in ChEMBL (CHEMBL3988442, “University of Dundee, Small-Polar-MMV Screening Library” (2021)).

Each number is a percent effect as filed. The record does not define 0% and 100%; most values in the screen are far below 50% and negative numbers occur (in some assays of this library far below -100). The compounds are a random part of those screened.

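Growth of Mycobacterium tuberculosis over 3 days (7H9 medium with glucose and tyloxapol); the read-out is not stated. Compounds at 500 µM. The record gives no direction; compounds that gave an IC50 in retests scored well above the rest, so higher reads as more growth inhibition. About 18,000 compounds were tested under these conditions; 7.9% (about 1,400) showed 50% or more at least once.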

compound	Percent Effect
OCc1nncn1-c1ccccc1	-5.934
O=C(NCCC1CCCCO1)NC1CC=CC1 (stereo not shown)	23.44
CCS(=O)(=O)N1CCC(C(=O)NC(C)COC)CC1 (stereo not shown)	1.219
CCOCc1nnc(NCc2cccc(OC)n2)o1	28.72
CC(C)(NC(=O)c1cc(-c2ccccc2)[nH]n1)C(N)=O	31.04
Cc1nnsc1CN(C)CC(=O)Nc1ccn(C)n1	3.119
CC(CNC(=O)C1=NN(C)C(=O)CC1)N1CCOCC1 (stereo not shown)	2.14
O=C(CC(F)(F)F)N1CCCC1c1ccncc1 (stereo not shown)	0.1811
CCN(CCn1cccn1)C(=O)c1c(O)cccc1O	5.957
Cc1cc(NC(=O)CN2CCCCC2C)n(C)n1 (stereo not shown)	-2.803
CS(=O)(=O)c1cccc(Cl)c1C#N	-3.042
Cc1nsc(NC(=O)C2CCNCC2)n1	9.807
Nc1nc(CCNC(=O)CSCCN2CCCC2)cs1	21.1
CCC1(CO)CCCN(Cc2[nH]cc(C)c(=O)c2C)C1 (stereo not shown)	13.25
NC(=O)C1CCN(Cc2csc(Br)c2)CC1	-0.8049
CNC(=O)Cc1noc(C=C2CCC2)n1	3.562
O[C@H]1CN(Cc2cccnc2)C[C@@H]1N1CCCCC1	-4.035
CCNC(=O)N1CCC(C(=O)c2ccc(O)cc2)CC1	40.28
CC(C(=O)NCc1ccc2c(c1)OCCO2)S(C)(=O)=O (stereo not shown)	25.76
CCCN(CC(N)=O)S(=O)(=O)N1CCCCC1	-5.168
COc1cc(OC)c(C(=O)c2nccn2C)c(OC)c1	4.028
COc1cccc(NC(=O)CN2CCN(C)CC2)c1	20.69
Cc1ccc[nH]c1=O	5.223
CNC(=O)c1cc(NC)ccn1	6.989
CS(=O)(=O)NCC1CCCCC1	29.57
CC(=O)N1CCC(CNC(=O)Nc2ccc(C)s2)CC1	18.63
NCCc1ncc(F)cc1F	30.29
CN(CC(=O)Nc1ccccc1F)CC(=O)N(C)C	9.533
CCN(C(=O)Cc1ccsc1)C1CCS(=O)(=O)C1 (stereo not shown)	1.56
N#Cc1ccc(C2NC(=O)c3cccnc3N2)cc1 (stereo not shown)	-8.708
OCCNC1CCCCC1	-2.784
COc1cncc(C(=O)Nc2ccc(F)cc2F)c1	0.7137
COc1ccc(Br)c(C(=O)NCCCN)c1	23.45
c1noc(C2CCNCC2)n1	-1.797
CC(=O)c1csc(NC(=O)Cc2ccc(C)nc2)n1	39.52
O=C(NCC1CCCO1)N1CCC2(C1)OCCO2 (stereo not shown)	1.617
CC(CCn1cccn1)NC1CCOCC1 (stereo not shown)	-4.933
COc1cnccc1N1CCNCC1	-11.74
O=C(NCCc1c[nH]cn1)c1ccncc1	13.51
NCCc1nc2c(s1)CCCC2	24.72
CCOCCNC(=O)N1CCN(S(C)(=O)=O)CC1	2.966
CC(C)[C@H]1CN(C(=O)c2ccoc2)C[C@@H]1N	3.295
O=C(NCCNc1cccc(Br)c1)C1CCOC1 (stereo not shown)	-6.782
N[C@H]1CN(S(=O)(=O)c2cccc(Cl)c2)C[C@@H]1C1CC1	71.14
O=C(COc1ccccc1F)NCCc1cccnc1	28.85
CC(=O)NCCCC(=O)N(C)Cc1nccs1	8.055
COc1ccccc1SC(C)C(=O)N1CCNC1=O (stereo not shown)	36.35
CNC(=O)c1cccc(NCc2cccnc2)n1	5.019
Cc1ccc(CNS(C)(=O)=O)cc1F	14.23
COCCNC(=O)CN1CCCC(C)C1 (stereo not shown)	7.009
CCN(CC)S(=O)(=O)NCc1cccc(C#N)c1	29.59
O=C(c1cncc(-c2cn[nH]c2)n1)N1CCCCC1	12.02
CCc1ccc(C(=O)NC2(C(=O)NC)CCCCC2)o1	8.985
CCN(CCO)c1ncnc2onc(C)c12	1.812
CCN1CCC(NC(=O)c2cncc(Br)c2)CC1	3.129
NCc1nnc(C2CCOC2)[nH]1 (stereo not shown)	6.167
CSCc1noc(CN2CCC(=O)NCC2C)n1 (stereo not shown)	2.758
COCCNCC(=O)OC	-5.137
Cc1cc(N2CC(C)OC(C)(C)C2)n2ncnc2n1 (stereo not shown)	12.43
CCNC(=O)CC1CCCCN1CCOC (stereo not shown)	8.845
CC(C)[C@H]1CN(c2nccc(N)n2)C[C@@H]1N	13.09
CCCNC(=O)Nc1cn(CC)nc1C(N)=O	-8.79
CC(C)(N)C1CCOCC1	12.23
Cc1n[nH]c(SCC(=O)NCCCc2csc(N)n2)n1	16.56
Cc1nc(CC(=O)NCC(C)n2ccnc2)cs1 (stereo not shown)	4.478
CC(C(=O)N(C)C)c1ccc2c(c1)OCCO2 (stereo not shown)	22.36
CN(CC1CCC1)C(=O)c1ccc2nncn2c1	8.303
CCc1cccc(NC(=O)CCNC(C)=O)c1	20.46
CNC1CCN(C(=O)Cc2cc(F)ccc2F)C1 (stereo not shown)	0.7737
COc1ccc(CNCCCSc2nnnn2C)cc1	18.01
O=C(CNC(=O)c1cc(F)cc(F)c1)Nc1nccs1	5.811
CC(CNC(=O)Cn1cccn1)Sc1ccccc1 (stereo not shown)	75.76
CCOC(=O)CN(C)S(=O)(=O)NCc1cnn(C)c1	12.37
Cc1ccc(CN2CCC(CNS(N)(=O)=O)CC2)cc1	8.899
Cc1cc(NC(=O)NCCN2CCCC(C)C2)n(C)n1 (stereo not shown)	10.69
O=C(NCc1ccnc(NC2CC2)c1)C1CCCCC1	-11.31
Cc1nc(CC(=O)NC2C=CS(=O)(=O)C2)cs1 (stereo not shown)	3.857
C1CCC(C2CCNCC2)OC1 (stereo not shown)	-1.284
Cc1ccc(C(=O)N2CCC3(CCCCO3)CC2)cn1	54.3
COC(=O)c1ccc(C(=O)N(C)C2(C#N)CCC2)cc1	3.446
CN(CCCS(C)(=O)=O)CC1CCN(CCO)CC1	5.781
CC1(C)CC(CCN)CCO1 (stereo not shown)	12.32
COCCN1CCC(NC(=O)Nc2ccccc2)C1 (stereo not shown)	5.172

For reference, 9 entries once more:

* Cc1cc(NC(=O)CN2CCCCC2C)n(C)n1 (stereo not shown) : -2.803%
* CC(CNC(=O)Cn1cccn1)Sc1ccccc1 (stereo not shown) : 75.76%
* CCN(CCO)c1ncnc2onc(C)c12 : 1.812%
* Cc1cc(NC(=O)NCCN2CCCC(C)C2)n(C)n1 (stereo not shown) : 10.69%
* CN(CC1CCC1)C(=O)c1ccc2nncn2c1 : 8.303%
* CS(=O)(=O)NCC1CCCCC1 : 29.57%
* CCN(CC)S(=O)(=O)NCc1cccc(C#N)c1 : 29.59%
* CC(CCn1cccn1)NC1CCOCC1 (stereo not shown) : -4.933%
* CCOCc1nnc(NCc2cccc(OC)n2)o1 : 28.72%